Data on two sequences can be found in article PMC4992025, “A Colorimetric Microplate Assay for DNA-Binding Activity of His-Tagged MutS Protein” (Molecular Biotechnology, 2016).

Chains of the proteins cited; added tags and fusions are not shown. Lines headed by an entry give the natural chain unless they say otherwise; changes in a name come on top.
UniProt P23909: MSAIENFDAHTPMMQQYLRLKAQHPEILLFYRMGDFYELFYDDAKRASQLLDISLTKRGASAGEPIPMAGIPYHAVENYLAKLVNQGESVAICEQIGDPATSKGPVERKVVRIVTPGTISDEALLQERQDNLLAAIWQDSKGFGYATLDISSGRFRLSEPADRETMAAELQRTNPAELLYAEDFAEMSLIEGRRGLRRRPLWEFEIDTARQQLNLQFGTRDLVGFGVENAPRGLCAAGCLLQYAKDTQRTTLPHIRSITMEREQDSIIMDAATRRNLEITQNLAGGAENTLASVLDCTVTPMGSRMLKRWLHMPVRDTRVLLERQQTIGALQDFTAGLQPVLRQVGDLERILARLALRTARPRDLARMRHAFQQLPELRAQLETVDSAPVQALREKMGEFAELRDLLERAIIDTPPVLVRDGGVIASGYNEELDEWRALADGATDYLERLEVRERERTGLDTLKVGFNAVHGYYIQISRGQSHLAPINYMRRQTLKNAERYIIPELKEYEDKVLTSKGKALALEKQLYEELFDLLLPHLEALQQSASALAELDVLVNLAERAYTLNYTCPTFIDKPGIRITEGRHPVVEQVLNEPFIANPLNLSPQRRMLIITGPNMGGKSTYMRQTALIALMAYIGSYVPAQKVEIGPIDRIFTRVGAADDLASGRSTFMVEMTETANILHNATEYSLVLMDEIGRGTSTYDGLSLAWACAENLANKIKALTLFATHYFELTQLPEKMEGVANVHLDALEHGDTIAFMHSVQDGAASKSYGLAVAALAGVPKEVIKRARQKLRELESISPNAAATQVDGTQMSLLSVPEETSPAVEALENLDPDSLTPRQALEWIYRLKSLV

Holding throughout (assay): Ni-plate colorimetric binding assay
For series [1], the system named is DrMutS (Deinococcus radiodurans). Conditions: 5 mM Mg2+, 1x PBS (150 mM salt) or 2x PBS (300 mM salt, with or without 1 mM ADP), 1% Tween-20, 5 mM MgCl2, room temperature, 1 ug His-MutS per well, 10 pmol DNA in 100 ul (0.1 uM), recombinant protein, protein details: N-terminal His tag, label: 5'-biotin on strand 1 (T49).
Series [2] concerns the target EcMutS (Escherichia coli) (UniProt P23909). The settings on record: 5 mM Mg2+, no ADP, 1x PBS (150 mM salt) or 2x PBS (300 mM salt, with or without 1 mM ADP), 1% Tween-20, 5 mM MgCl2, room temperature, 1 ug His-MutS per well, 10 pmol DNA in 100 ul (0.1 uM), recombinant protein, protein details: N-terminal His tag, label: 5'-biotin on strand 1 (T49).
In series [3] the target is T1, TthMutS (Thermus thermophilus) (UniProt Q56239).
T1 sequence (looked up, limits assumed): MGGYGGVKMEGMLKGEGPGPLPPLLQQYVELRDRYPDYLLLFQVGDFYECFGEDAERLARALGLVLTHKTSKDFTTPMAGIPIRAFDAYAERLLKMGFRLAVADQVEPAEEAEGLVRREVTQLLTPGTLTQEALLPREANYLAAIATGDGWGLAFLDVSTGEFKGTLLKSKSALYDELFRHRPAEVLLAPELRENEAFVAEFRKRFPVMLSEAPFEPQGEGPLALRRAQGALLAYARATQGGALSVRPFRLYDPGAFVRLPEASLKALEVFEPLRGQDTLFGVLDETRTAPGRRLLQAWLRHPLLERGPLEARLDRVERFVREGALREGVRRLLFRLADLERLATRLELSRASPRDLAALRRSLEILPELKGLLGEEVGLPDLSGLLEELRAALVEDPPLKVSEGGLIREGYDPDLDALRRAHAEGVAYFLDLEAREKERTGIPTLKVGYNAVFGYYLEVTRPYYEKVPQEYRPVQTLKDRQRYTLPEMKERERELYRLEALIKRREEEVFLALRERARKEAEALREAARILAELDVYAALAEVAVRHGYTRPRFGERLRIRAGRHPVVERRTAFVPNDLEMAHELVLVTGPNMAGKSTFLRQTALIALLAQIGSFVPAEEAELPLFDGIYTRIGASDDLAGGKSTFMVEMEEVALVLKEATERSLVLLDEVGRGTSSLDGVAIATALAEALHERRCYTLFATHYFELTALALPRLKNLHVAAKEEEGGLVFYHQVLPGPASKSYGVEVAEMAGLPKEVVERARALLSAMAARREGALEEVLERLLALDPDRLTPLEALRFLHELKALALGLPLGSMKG
The settings on record: 5 mM Mg2+, 1x PBS (150 mM salt) or 2x PBS (300 mM salt, with or without 1 mM ADP), 1% Tween-20, 5 mM MgCl2, room temperature, 1 ug His-MutS per well, 10 pmol DNA in 100 ul (0.1 uM), recombinant protein, protein details: N-terminal His tag, label: 5'-biotin on strand 1 (T49).

The exact form of at least one protein or probe is not confirmed. Weaker means in comparison with the reference protein, sequence or condition of that experiment. At least one verdict was read from the data and is not stated in words by the source. For some assays here: Where a protein sequence is shown, tags need not be part of it.

In the case of “ACAGATCCACTGTGCGACGAGCTGTGCCGCACGGTGATCGCAGCCGCTG / CAGCGGCTGCGATCACCGTGCGGCGCAGCTCGTCGCACAGTGGATCTGT [TG49 (T49/G49, T:G mismatch)]”, the binding result was “binds” in series [1] (150 mM salt, no ADP); “binds” in series [1] (300 mM salt, 1 mM ADP); “binds” in series [1] (300 mM salt, no ADP); “binds” in series [2] (150 mM salt); “binds” in series [2] (300 mM salt); “binds” in series [3] (150 mM salt, no ADP). In addition, the binding result in series [3] (300 mM salt, 1 mM ADP) is given as “binds”; in series [3] (300 mM salt, no ADP), “binds”.
On to “ACAGATCCACTGTGCGACGAGCTGTGCCGCACGGTGATCGCAGCCGCTG (double strand) [TA49 (T49/A49, fully complementary)]”, for which the binding result in series [1] (150 mM salt, no ADP) is reported as “binds more weakly”; in series [1] (300 mM salt, 1 mM ADP) it was “binds more weakly”; in series [1] (300 mM salt, no ADP), “binds more weakly”; in series [2] (300 mM salt), “binds more weakly”; in series [3] (300 mM salt, 1 mM ADP), “binds more weakly”; in series [3] (300 mM salt, no ADP), “binds more weakly”.
